Where two headings read alike, the source gives them in different places. No constants are given. Whether binding was seen depends on the method and setting. In cells and extracts the contact can be indirect. A yes stands for co-enrichment or nearness to the bait. Other partners may have been found.
B1: alpha-trehalose-phosphate synthase, Tps1 (enzyme, UniProt Q6IVK9 1-670)
chain: MTTMSNDIPNSPTSTSFTGTFSPAATAANTAANARTSDAPSPTTSSSGPKLETSKEQRLIVVSNRLPVTISKDDNGEYHFKMSSGGLVSALSGCKKTMSFTWIGWPGKDIPMQDRETVNRRLLDEYNCYPVYLSDELADSHYNGSFSNSILWPLFHYHPGEMNFDAAHWLAYREANMRFADVVSSLVQAGDMVWVQDYHLMLLPMLLRSMITGESAQGEMVRQELGRVKEGVDDTVVKEVLKMGPGVAQAEDEGVEMLDDVEEEGGEMDVKSSPKRPHYARGMSTFQKQELVAKEKGKEGIRIGFFLHTPFPSSEIYRILPVRREILLGVLQCDLIGFHTYDYARHFLSSCTRILGLETQPNGIEFDGRYCQVGTFPIGIDPNQFIEGLQKESIVKRLRSLEARFEGVKVIIGVDRLDYIKGIPQKLQALETFLTQHPEWIGKVVLVQLAIPSRQDVEEYQDLRACVNELVGRINGRFGTVESVPIHYMHKSVPFEELTAMYALADACLVTSTRDGMNLVAYEYISSQAERHGSMILSEFAGAAQSFNGSLLINPWDVQSTADAINQALTLSPQQRKTNWQKLFNYVSKYTAEAWGVSFVNELNRLSGQRPSGPTGLAGRRKSGSLSRTSSKASIQRRKSSQSGIVTGLGAAAGAAVNWAQAQVQGGSQT

Sequences of proteins named here, by UniProt entry; tags and fusion partners are left off. A change or cut given only in a name is not applied to a line headed by its entry.
UniProt O42773: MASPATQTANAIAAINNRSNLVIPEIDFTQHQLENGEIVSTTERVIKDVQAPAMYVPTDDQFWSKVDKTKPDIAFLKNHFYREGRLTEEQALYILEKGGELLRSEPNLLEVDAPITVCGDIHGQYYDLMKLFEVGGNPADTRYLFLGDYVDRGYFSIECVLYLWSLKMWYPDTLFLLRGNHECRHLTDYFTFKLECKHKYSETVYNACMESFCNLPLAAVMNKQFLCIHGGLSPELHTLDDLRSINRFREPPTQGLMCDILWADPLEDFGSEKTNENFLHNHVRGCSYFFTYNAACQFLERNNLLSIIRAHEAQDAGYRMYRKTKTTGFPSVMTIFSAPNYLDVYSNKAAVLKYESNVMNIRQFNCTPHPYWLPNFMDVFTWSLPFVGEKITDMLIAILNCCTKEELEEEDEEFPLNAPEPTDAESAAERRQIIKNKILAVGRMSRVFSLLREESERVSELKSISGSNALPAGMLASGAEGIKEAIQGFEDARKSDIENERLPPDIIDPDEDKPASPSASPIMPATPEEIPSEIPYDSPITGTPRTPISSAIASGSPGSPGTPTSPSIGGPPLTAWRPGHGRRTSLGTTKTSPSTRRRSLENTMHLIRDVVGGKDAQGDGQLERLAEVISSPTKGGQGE
UniProt J9VKE9: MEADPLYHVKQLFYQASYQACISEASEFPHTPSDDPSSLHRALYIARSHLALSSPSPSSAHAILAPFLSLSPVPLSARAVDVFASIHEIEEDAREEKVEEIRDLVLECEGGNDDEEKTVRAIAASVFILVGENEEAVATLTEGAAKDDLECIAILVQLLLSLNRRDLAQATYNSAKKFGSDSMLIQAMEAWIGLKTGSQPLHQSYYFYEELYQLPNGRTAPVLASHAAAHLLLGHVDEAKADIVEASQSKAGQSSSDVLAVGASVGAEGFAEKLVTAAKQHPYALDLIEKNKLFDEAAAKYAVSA
UniProt J9VU63: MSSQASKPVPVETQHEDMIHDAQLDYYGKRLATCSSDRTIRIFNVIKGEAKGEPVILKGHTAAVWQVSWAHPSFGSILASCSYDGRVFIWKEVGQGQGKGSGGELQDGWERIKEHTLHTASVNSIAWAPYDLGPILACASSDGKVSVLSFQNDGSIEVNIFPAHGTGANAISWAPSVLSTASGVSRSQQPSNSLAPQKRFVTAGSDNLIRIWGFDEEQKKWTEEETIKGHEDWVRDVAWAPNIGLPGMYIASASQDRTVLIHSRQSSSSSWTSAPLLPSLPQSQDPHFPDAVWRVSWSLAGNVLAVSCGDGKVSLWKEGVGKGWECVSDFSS

How the values were obtained:
[1] = molecular target: GFP-Cna1 (calcineurin catalytic subunit A tagged with GFP) (C. neoformans) (UniProt O42773); test: affinity purification with mass spectrometry; GFP-Cna1 precipitated with GFP-Trap resin from lysates of cells kept 1 h at 24°C or 37°C; 2 h at 4°C; lysis 10 mM Tris/Cl pH 7.5, 150 mM NaCl, 0.5 mM EDTA; wash with 350 mM NaCl; gel slices of about 6-100 kDa analysed by LC-MS/MS; control strain KN99a without GFP-Cna1; lysates analysed too
[2] = molecular target: GFP-Cna1 (calcineurin catalytic subunit A tagged with GFP) (C. neoformans) (UniProt O42773); test: as above; remark: listed apart in the source

Molecule	binding [1]	binding [2]
COPI component Sec28 (endogenous) (from UniProt J9VKE9)	binds	–
COPII component Sec13 (endogenous) (from UniProt J9VU63)	binds	–
B1	–	binds

From PMC3184950
